The text below walks through data of paper doi:10.1101/2022.04.13.488151.

Sequences and labels used below:
T1: Sun4 (mouse (endogenous in testis cells)) (UniProt Q9JJF2)
T1 sequence: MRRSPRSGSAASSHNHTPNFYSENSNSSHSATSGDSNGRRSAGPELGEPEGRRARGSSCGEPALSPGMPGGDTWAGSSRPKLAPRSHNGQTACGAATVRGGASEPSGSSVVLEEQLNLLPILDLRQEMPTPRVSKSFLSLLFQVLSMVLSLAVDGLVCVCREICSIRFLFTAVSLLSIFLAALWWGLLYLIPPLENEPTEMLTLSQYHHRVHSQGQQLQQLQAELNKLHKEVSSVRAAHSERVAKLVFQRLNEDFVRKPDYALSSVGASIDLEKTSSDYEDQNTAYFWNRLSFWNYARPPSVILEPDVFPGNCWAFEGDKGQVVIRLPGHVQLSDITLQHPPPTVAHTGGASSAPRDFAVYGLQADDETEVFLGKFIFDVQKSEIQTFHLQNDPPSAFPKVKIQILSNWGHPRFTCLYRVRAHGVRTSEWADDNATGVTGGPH

B1: Sun3 (protein, UniProt Q5SS91 1-320)
chain: MLTRSWKIILSTVFISTFLLVGLLNHQWLKETEFPQKPRQLYTVIAEYGSRLYNYQARLRMPKEQQELLKKESQTLENNFREILFLIEQIDVLKALLKDMKDGVHNHSLPVHRDAVQDQATTDVLDEEMSNLVHYVLKKFRGDQIQLADYALKSAGASVIEAGTSESYKNNKAKLYWHGIGFLNYEMPPDMILQPDVHPGKCWAFPGSQGHILIKLARKIIPTAVTMEHISEKVSPSGNISSAPKEFSVYGVMKKCEGEEIFLGQFIYNKMEATIQTFELQNEASESLLCVKLQILSNWGHPKYTCLYRFRVHGIPSDYT
B2: Lamin B3 (protein, UniProt P21619-2 1-474)
chain: MGESESMRGTGEGCGRDCPEAARPLMETVEGALPELRGRPLREYVKRRPRGLGKTPVEDPVKSEGAVGYPRTWNNHLRVPTREQEVRETRRRHERRLVEVDSSRQQEYDFKMAQALEDLRSQHDEQVRLYRVELEQTYQAKLDNAKLLSDQNDKAAHAAREELKEARMRVESLSYQLLGLQKQASAAENHIHELEEALAGERDKFRKMLDAKEQEMTEVRDAMQQQLAEYQELLDIKLALDMEISAYRKLLEGEEERLKLSPSPSSRITISRATSSSSSSSGVGMSVGQGRGKRRRLETEDTSGSPSRASRVSSGSRLAQQTVATGVVNIDEVDPEGRFVRLKNSSDKDQSLGNWRIKRQVLEGEDIAYKFTPKYVLRAGQTVTVWAAGAGATHSPPSTLVWKSQTNWGPGESFRTALVSADGEEVAVKAAKHSSVQGRENGEEEEEEEAEFGEEDLFHQQGDPRTTSRGCRLM
B3: Sun1 (protein, UniProt Q9D666 1-913)
chain: MDFSRLHTYTPPQCVPENTGYTYALSSSYSSDALDFETEHKLEPVFDSPRMSRRSLRLVTTASYSSGDSQAIDSHISTSRATPAKGRETRTVKQRRSASKPAFSINHLSGKGLSSSTSHDSSCSLRSATVLRHPVLDESLIREQTKVDHFWGLDDDGDLKGGNKAATQGNGELAAEVASSNGYTCRDCRMLSARTDALTAHSAIHGTTSRVYSRDRTLKPRGVSFYLDRTLWLAKSTSSSFASFIVQLFQVVLMKLNFETYKLKGYESRAYESQSYETKSHESEAHLGHCGRMTAGELSRVDGESLCDDCKGKKHLEIHTATHSQLPQPHRVAGAMGRLCIYTGDLLVQALRRTRAAGWSVAEAVWSVLWLAVSAPGKAASGTFWWLGSGWYQFVTLISWLNVFLLTRCLRNICKVFVLLLPLLLLLGAGVSLWGQGNFFSLLPVLNWTAMQPTQRVDDSKGMHRPGPLPPSPPPKVDHKASQWPQESDMGQKVASLSAQCHNHDERLAELTVLLQKLQIRVDQVDDGREGLSLWVKNVVGQHLQEMGTIEPPDAKTDFMTFHHDHEVRLSNLEDVLRKLTEKSEAIQKELEETKLKAGSRDEEQPLLDRVQHLELELNLLKSQLSDWQHLKTSCEQAGARIQETVQLMFSEDQQGGSLEWLLEKLSSRFVSKDELQVLLHDLELKLLQNITHHITVTGQAPTSEAIVSAVNQAGISGITEAQAHIIVNNALKLYSQDKTGMVDFALESGGGSILSTRCSETYETKTALLSLFGVPLWYFSQSPRVVIQPDIYPGNCWAFKGSQGYLVVRLSMKIYPTTFTMEHIPKTLSPTGNISSAPKDFAVYGLETEYQEEGQPLGRFTYDQEGDSLQMFHTLERPDQAFQIVELRVLSNWGHPEYTCLYRFRVHGEPIQ
B4: Lap2 (protein, UniProt Q61029 1-452)
chain: MPEFLEDPSVLTKDKLKSELVANNVTLPAGEQRKDVYVQLYLQHLTARNRPPLAAGANSKGPPDFSSDEEREPTPVLGSGASVGRGRGAVGRKATKKTDKPRLEDKDDLDVTELSNEELLDQLVRYGVNPGPIVGTTRKLYEKKLLKLREQGTESRSSTPLPTVSSSAENTRQNGSNDSDRYSDNDEDSKIELKLEKREPLKGRAKTPVTLKQRRTEHNQSYSQAGVTETEWTSGSSTGGPLQALTRESTRGSRRTPRKRVETSQHFRIDGAVISESTPIAETIKASSNESLVANRLTGNFKHASSILPITEFSDITRRTPKKPLTRAEVGEKTEERRVDRDILKEMFPYEASTPTGISASCRRPIKGAAGRPLELSDFRMEESFSSKYVPKYAPLADVKSEKTKKRRSVPMWIKMLLFALVAVFLFLVYQAMETNQGNPFTNFLQDTKISN

These are yes or no findings as the source states them, for the method shown. In cells and extracts the contact can be indirect. Some entries that bind do so weakly or less than the wild type.

The experiment deals with T1, Sun4 (mouse (endogenous in testis cells)). The experiment in a line: co-IP.
As to B1, the binding entry is “binds”.

B2: the binding result is recorded as “binds”.

On to B3, for which the binding result is “no binding”.

Turning to B4, the binding result is recorded as “no binding”.
